Assay: general procedure: Fmoc solid-phase peptide synthesis; ChemMatrix Rink Amide resin (0.24 mmol/g, 0.4 g); HBTU or HATU (A); DIC/HOAt (B); DIC/HOBt (C)
Details: whole synthesis, scale of the general procedure 0.25 mmol or 1.0 mmol

N-epsilon31-[2-(2-{2-[2-(2-{2-[(S)-4-Carboxy-4-(17-carboxyheptadecanoylamino)butyrylamino]ethoxy}ethoxy)acetylamino]ethoxy}ethoxy)acetyl][DesaminoHis7,Asp11,Glu18,Glu22,Val25,Arg26,Asp27,Glu30,Lys31]GLP-1 (7-33)-peptide amide
final HPLC purity (HPLC (02_B4_4)): 99.6%
final HPLC purity (HPLC (03_A3_1)): 94.3%
